Experimental findings from publication PMC7055916 are described below.

The assay addresses T. brucei PNUTS with PTP tag, bloodstream form (T. brucei). The experiment in a line: co-IP; bloodstream form T. brucei whole cell extracts with PTP- and HA-tagged proteins; IgG Sepharose (protein A affinity), washed in PA-150 buffer, western blot with anti-HA, anti-protein A, anti-La.

No constants are given. Whether binding was seen depends on the method and setting. Binding seen in cells or lysates may run through a third protein.

B1: T. brucei La protein (protein, UniProt Q9N9G6 1-335)
chain: MPLSSENKQKLQKQVEFYFSDVNVQRDIFLKGKMAENAEGFVSLETLLTFKRVNSVTTDVKEVVEAIRPSEKLVLSEDGLMVRRRDPLPESIQTDHQTVYVKPVPPTATLEQLTEFFSKHGTVQAVWRRYFAGKKDAPPESRTKPSVFVVFNSSEEAEAFQKAPPMYDDVQLTAEMKTTYLERKAEEIAAKKSSKTKNGGATDRAEKKTPPMPLGSSYRVSGCGEMESFATVKNLWPVEEQKGIRYVFMPDKESALLIFQDTQTGEKMVADLKSRGTTLNGKQPDIKKLEGDDEQKLLENVEKEIVDRAMQSANNRSGRGGRGGRGGRGHKRSRE
With B1, the binding result is “no binding”.
